Experimental data from US12235275B2, “Fluorescent substrates for poly(ADP-ribosyl) hydrolases” (The Board of Trustees of the University of Illinois, priority 2018, dated 2025).
For at least one compound, name, drawing or mass did not settle the structure.

System: ARH3
Format: cell-based
Conditions: MCF10A cells treated for 1 h

C=C[C@@]1(C)CC(=O)[C@]2(O)[C@@]3(C)[C@@H](O)CCC(C)(C)[C@@H]3[C@H](O)[C@H](OC(C)=O)[C@@]2(C)O1 [forskolin]
ARH3 inhibition in treated cells: did not result in ARH3 inhibition
